Laboratory results as given in US20260091080A1.
These are yes or no findings as the source states them, for the method shown. For some of these results: Binding seen in cells or lysates may run through a third protein. Some entries that bind do so weakly or less than the wild type. For some of these results: Where a sequence is shown, tags or fusion partners need not be part of it. One block for each binder: values may come before it.

How the values were obtained:
[1] = target: TDP-43 wild type (non-mutant), C-terminal V5 tag (pcDNA3.1/V5) (human) (UniProt Q13148); assay: co-immunoprecipitation (data not shown)
[2] = target: TDP-43-A315T, C-terminal V5 tag (human) (UniProt Q13148); assay: co-immunoprecipitation (data not shown)
[3] = target: TDP-43-ΔNES (NES-deleted variant of TDP-43), C-terminal V5 tag (human) (UniProt Q13148); assay: co-immunoprecipitation (data not shown)
[4] = target: carboxyl-terminal part of human TDP-43 (amino acids 259-415), bait in pBT vector (human) (UniProt Q13148); assay: bacterial two-hybrid screen (BacterioMatch II), TDP-43 259-415 as bait, human brain cDNA library
[5] = target: TDP-43-ΔNES (NES-deleted variant of TDP-43), C-terminal V5 tag (human) (UniProt Q13148); assay: co-immunoprecipitation after co-expression (n=3)
[6] = target: TDP-43-A315T, C-terminal V5 tag (human) (UniProt Q13148); assay: co-immunoprecipitation from co-transfected 293T HEK cells
[7] = target: TDP-43-ΔNES (NES-deleted variant of TDP-43), C-terminal V5 tag (human) (UniProt Q13148); assay: as above

binding [1]: binds | binding [2]: binds | binding [3]: binds
B1: 14-3-3η, C-terminal myc tag (protein, UniProt Q04917 1-246, looked up, not shown: small tags and cut ends)
chain: MGDREQLLQRARLAEQAERYDDMASAMKAVTELNEPLSNEDRNLLSVAYKNVVGARRSSWRVISSIEQKTMADGNEKKLEKVKAYREKIEKELETVCNDVLSLLDKFLIKNCNDFQYESKVFYLKMKGDYYRYLAEVASGEKKNSVVEASEAAYKEAFEISKEQMQPTHPIRLGLALNFSVFYYEIQNAPEQACLLAKQAFDDAIAELDTLNEDSYKDSTLIMQLLRDNLTLWTSDQQDEEAGEGN

binding [4]: binds
B2: 14-3-3θ (encoded by the YWHAQ gene), clone from human brain cDNA pTRG plasmid library (protein)
chain: MEKTELIQKAKLAEQAERYDDMATCMKAVTEQGAELSNEERNLLSVAYKNVVGGRRSAWRVISSIEQKTDTSDKKLQLIKDYREKVESELRSICTTVLELLDKYLIANATNPESKVFYLKMKGDYFRYLAEVACGDDRKQTIDNSQGAYQEAFDISKKEMQPTHPIRLGLALNFSVFYYEILNNPELACTLAKTAFDEAIAELDTLNEDSYKDSTLIMQLLRDNLTLWTSDSAGEECDAAEGAEN

binding [1]: binds | binding [2]: binds | binding [3]: binds | binding [5]: binds | binding [6]: binds | binding [7]: binds
B3: 14-3-3θ, C-terminal myc tag (pcDNA3.1/myc) (protein, not shown: small tags and cut ends)
chain: B2 chain

binding [1]: binds | binding [2]: binds | binding [3]: binds
B4: 14-3-3γ, C-terminal myc tag (protein, UniProt P61981 1-247, looked up, not shown: small tags and cut ends)
chain: MVDREQLVQKARLAEQAERYDDMAAAMKNVTELNEPLSNEERNLLSVAYKNVVGARRSSWRVISSIEQKTSADGNEKKIEMVRAYREKIEKELEAVCQDVLSLLDNYLIKNCSETQYESKVFYLKMKGDYYRYLAEVATGEKRATVVESSEKAYSEAHEISKEHMQPTHPIRLGLALNYSVFYYEIQNAPEQACHLAKTAFDDAIAELDTLNEDSYKDSTLIMQLLRDNLTLWTSDQQDDDGGEGNN
